The record followed here is paper PMC4660213, “Identification and characterization of multiple rubisco activases in chemoautotrophic bacteria” (Nature Communications, 2015).

Chains of the proteins cited; added tags and fusions are not shown. Lines headed by an entry give the natural chain unless they say otherwise; changes in a name come on top.
UniProt B7JA26: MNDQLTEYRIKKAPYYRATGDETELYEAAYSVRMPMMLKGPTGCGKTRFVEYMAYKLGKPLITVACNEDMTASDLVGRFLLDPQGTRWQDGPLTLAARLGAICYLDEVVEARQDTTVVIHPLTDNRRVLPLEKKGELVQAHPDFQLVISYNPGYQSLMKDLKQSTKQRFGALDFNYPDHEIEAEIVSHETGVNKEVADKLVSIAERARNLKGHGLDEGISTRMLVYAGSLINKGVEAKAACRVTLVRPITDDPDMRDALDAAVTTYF
UniProt B7J5E4: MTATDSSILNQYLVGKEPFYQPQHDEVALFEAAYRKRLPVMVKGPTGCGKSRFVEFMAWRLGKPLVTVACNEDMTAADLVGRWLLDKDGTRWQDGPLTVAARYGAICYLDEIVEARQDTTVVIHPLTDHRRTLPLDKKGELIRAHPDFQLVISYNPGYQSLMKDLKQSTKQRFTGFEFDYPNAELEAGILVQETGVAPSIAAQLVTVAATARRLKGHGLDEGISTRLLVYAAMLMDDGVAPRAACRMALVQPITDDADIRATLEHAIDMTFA
UniProt B7JA27: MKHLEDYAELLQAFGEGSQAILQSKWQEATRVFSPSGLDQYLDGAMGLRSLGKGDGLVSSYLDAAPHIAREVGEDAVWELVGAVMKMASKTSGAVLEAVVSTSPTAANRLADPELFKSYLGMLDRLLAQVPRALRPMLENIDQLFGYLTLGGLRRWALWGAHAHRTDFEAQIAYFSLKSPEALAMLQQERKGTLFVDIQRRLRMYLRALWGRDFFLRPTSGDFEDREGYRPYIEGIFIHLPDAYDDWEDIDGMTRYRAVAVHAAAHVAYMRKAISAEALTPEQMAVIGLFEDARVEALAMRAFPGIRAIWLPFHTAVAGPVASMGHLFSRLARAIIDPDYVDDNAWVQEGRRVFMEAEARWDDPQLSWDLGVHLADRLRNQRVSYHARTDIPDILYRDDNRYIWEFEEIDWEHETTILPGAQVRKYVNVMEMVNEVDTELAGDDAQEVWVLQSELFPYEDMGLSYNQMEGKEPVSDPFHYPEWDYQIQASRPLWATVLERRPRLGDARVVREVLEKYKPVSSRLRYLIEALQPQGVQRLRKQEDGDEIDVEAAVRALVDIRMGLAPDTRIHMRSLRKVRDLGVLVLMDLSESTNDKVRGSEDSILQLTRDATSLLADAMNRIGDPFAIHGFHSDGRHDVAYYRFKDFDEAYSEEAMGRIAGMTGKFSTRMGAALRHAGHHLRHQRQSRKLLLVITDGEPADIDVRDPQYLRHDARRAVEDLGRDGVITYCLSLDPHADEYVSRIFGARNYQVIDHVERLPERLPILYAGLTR
UniProt B7J5E5: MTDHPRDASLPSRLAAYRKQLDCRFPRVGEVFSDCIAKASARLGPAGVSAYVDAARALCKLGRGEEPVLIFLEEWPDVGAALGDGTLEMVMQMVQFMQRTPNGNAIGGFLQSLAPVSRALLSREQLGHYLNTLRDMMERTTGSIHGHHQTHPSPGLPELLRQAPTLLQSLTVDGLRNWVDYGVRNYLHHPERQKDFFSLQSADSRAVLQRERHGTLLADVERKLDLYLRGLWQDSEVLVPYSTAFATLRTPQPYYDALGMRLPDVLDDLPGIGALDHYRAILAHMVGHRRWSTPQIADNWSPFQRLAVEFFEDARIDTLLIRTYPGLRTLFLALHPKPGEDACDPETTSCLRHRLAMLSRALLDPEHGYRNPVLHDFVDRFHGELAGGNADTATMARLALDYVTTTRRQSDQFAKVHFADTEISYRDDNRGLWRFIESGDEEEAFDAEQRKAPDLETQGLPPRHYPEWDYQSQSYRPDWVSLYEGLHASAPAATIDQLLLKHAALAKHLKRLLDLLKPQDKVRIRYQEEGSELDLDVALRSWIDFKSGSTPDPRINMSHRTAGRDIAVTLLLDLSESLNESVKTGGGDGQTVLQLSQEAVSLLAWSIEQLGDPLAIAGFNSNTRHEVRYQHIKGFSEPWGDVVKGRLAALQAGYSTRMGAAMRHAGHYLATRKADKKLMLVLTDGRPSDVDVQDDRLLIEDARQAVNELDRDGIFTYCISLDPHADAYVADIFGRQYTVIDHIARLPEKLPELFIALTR

Assay [1] addresses Acidithiobacillus ferrooxidans CbbQ1 (Acidithiobacillus ferrooxidans ATCC 23270) (UniProt B7JA26). Nature of the assay: co-purification (Ni-NTA, ion-exchange and size-exclusion chromatography); CbbQ and CbbO co-expressed in E. coli as His6–ubiquitin fusions, ubiquitin cleaved, MonoQ, Superdex 200; Q2O2 also with 1 mM Mg-ATP in all buffers (identical profile). In general terms: SEC sorts molecules by how far they enter the pores of the column.

Assay [2] deals with Acidithiobacillus ferrooxidans CbbQ2 (Acidithiobacillus ferrooxidans ATCC 23270) (UniProt B7J5E4). Described as above.

These are yes or no findings as the source states them, for the method shown. In cells and extracts the contact can be indirect. A result given as binding can be weak or reduced; the word gives no strength.

Regarding “Acidithiobacillus ferrooxidans CbbO1 (from UniProt B7JA27)”, in assay [1], the binding result was “binds”.
In the case of “Acidithiobacillus ferrooxidans CbbO2 (from UniProt B7J5E5)”, the binding entry in assay [2] was “binds”.
